# Test results from patent US12293809B2, “Workflow for generating compounds with biological activity against a specific biological target” (INSILICO MEDICINE IP LIMITED, priority 2019, dated 2025).
# At least one structure is not confirmed: it was looked up by name or label, or the drawing left a doubt.
# What was measured:
# [1] = tested on: CTGF expression in MRC-5 cells; experiment: MRC-5 fibrosis assay, TGF-β stimulated (Western blot); assay type: cell-based; settings: all the concentrations used
# Method: (§1) After 20 h growth in the reduced serum medium, the cells were treated with indicated doses of compounds for 30 minutes. Subsequently, the cells were stimulated with 10 ng/mL TGF-β (R&D Systems, 240-B-002) for 48 or 72 hours.
# [2] = tested on: α-actin expression in MRC-5 cells; experiment: as above; assay type: cell-based; settings: 0.5 μM and upper concentrations
# Method: as §1
# DDR1 and DDR2 = settings: cited from earlier work
structure (smiles),measurement,setting,value
"Cc1nc(Nc2ncc(C(=O)Nc3c(C)cccc3Cl)s2)cc(N2CCN(CCO)CC2)n1 [Dasatinib, dasatinib]",effect on CTGF expression,[1],only stimulation effect with no signs of inhibition
same,effect on α-actin expression,[2],significant stimulation effect
same,IC50,DDR1 and DDR2,15 to 30 nM
